Measured values from patent US9745339B2 (GRAFFINITY PHARMACEUTICALS GMBH, priority 2012, dated 2017).

Assays:
[1] = tested on: Bevacizumab spiked into host cell proteins; assay: Purification of antibody from cell culture supernatant by column chromatography; settings: for purity: Bevacizumab 0.12 mg/ml spiked into host cell proteins (20% purity feed), elution 50 mM glycine pH 3.0; for yield: elution peak area relative to Protein A column taken as 100%, runs with pure antibody
[2] = tested on: poly-IgG from human serum (h-poly-IgG); assay: Microtiter plate chromatography of resins: binding and elution of human poly-IgG
Method: (§1) Resins were assessed in packed mode by microtiter plate chromatography. For each column, approximately 30 μl of resin were transferred to a 384-well filter plate and sealed with appropriate top fits. Columns with rProtein A SEPHAROSE 4 FF and MABSORBENT A2P HF were included as controls.
(§2) Either 3.3 cv of whole IgGs dissolved at 0.5 mg ml^−1 in PBS or undiluted host cell proteins (HCP) were injected onto columns.
(§3) Unbound protein was washed from columns with 5 cv of PBS prior to elution with 5 cv of glycine buffer at pH 2.5. […] During injection of samples, speed was reduced to 10 g and centrifugation time increased to 5-10 min. Effluent fractions were collected in 384-well plates and concentrations of protein were analyzed by Bradford assay. Protein masses mi, mft and me (see below) were calculated as the product of fraction volume and measured protein concentration.
(§4) The fraction of bound protein was calculated as the difference between the total mass of protein injected mi and the mass of protein detected in the flowthrough mft, divided by the total mass of protein injected.
(§5) The yield of protein was calculated as the mass of protein eluted me, divided by the mass of protein injected mi.
(§6) The fraction of bound protein and the yield of protein were calculated for each resin based on data for whole IgG-antibodies. In the case of host cell proteins, only the fraction of bound protein is given. Selectivity of resins was calculated from data for Bevacizumab whole IgG and host cell proteins. Due to limited experimental precision, selectivity was truncated for values beyond 10.

Tocilizumab = assay: Microtiter plate chromatography of resins: binding and elution of Tocilizumab
Method: as §1, §2, §3, §4, §5, §6

[3] = mass eluted (glycine pH 2.5) / mass injected
[4] = L55-73: estimated values based on the knowledge obtained from L01-L54

SMILES	purity [1]	yield [1]	h-poly-IgG Yield [2, 3]	Tocilizumab Yield (Tocilizumab; [3])	h-poly-IgG Yield [2, 4]	Tocilizumab Yield (Tocilizumab; [4])
NCCOCCOCCn1cnc2cc(C(=O)Nc3nnc(-c4ccco4)s3)ccc21	93%	100%	92%	93%	–	–
NCCCn1cnc2cc(C(=O)Nc3nnc(-c4ccco4)s3)ccc21 [Ligand L05, 1-(3-Amino-1-propyl)benzimidazole-5-carboxylic acid N-[5-(2-furyl)-1,3,4-thiadiazol-2-yl]amide]	86%	100%	104%	103%	–	–
NCCCNc1ccc(C(=O)Nc2nnc(-c3ccco3)s2)cn1 [Ligand L19, 6-[(3-Amino-1-propyl)amino]nicotinic acid N-[5-(2-furyl)-1,3,4-thiadiazol-2-yl]amide]	80%	100%	96%	91%	–	–
NCCCn1cnc2cc(C(=O)Nc3nc(-c4ccccn4)cs3)ccc21 [Ligand L23, 1-(3-Amino-1-propyl)benzimidazole-5-carboxylic acid N-[4-(2-pyridyl)thiazol-2-yl] amide]	82%	100%	103%	95%	–	–
NCCCn1c(=O)[nH]c2cc(C(=O)Nc3nnc(-c4ccco4)s3)ccc21 [Ligand L24, 1-(3-Amino-1-propyl)-2-oxo-2,3-dihydrobenzimidazole-5-carboxylic acid N-[5-(2-furyl)-1,3,4-thiadiazol-2-yl] amide]	91%	100%	99%	93%	–	–
Cc1nc2cc(C(=O)Nc3nnc(-c4ccco4)s3)ccc2n1CCCN [Ligand L39, 1-(3-Amino-1-propyl)-2-methylbenzimidazole-5-carboxylic acid N-[5-(2-furyl)-1,3,4-thiadiazol-2-yl] amide]	91%	100%	98%	99%	–	–
NCCCNc1ccc(C(=O)Nc2nc(-c3ccccn3)cs2)cn1 [Ligand L40, 6-[(3-Amino-1-propyl)amino]nicotinic acid N-[4-(2-pyridyl)thiazol-2-yl] amide]	85%	100%	87%	101%	–	–
Cc1nc2cc(C(=O)Nc3nc(-c4ccccn4)cs3)ccc2n1CCCN [Ligand L42, 1-(3-Amino-1-propyl)-2-methylbenzimidazole-5-carboxylic acid N-[4-(2-pyridyl)thiazol-2-yl] amide]	89%	100%	103%	106%	–	–
NCCCn1cnc2cc(C(=O)Nc3nc(-c4ccncc4)cs3)ccc21 [Ligand L47, 1-(3-Amino-1-propyl)benzimidazole-5-carboxylic acid N-[4-(4-pyridyl)thiazol-2-yl] amide]	85%	100%	97%	108%	–	–
Cc1nc2cc(C(=O)Nc3nnc(-c4ccoc4)s3)ccc2n1CCCN [Ligand L61, 1-(3-Amino-1-propyl)-2-methylbenzimidazole-5-carboxylic acid N-[5-(3-furyl)-1,3,4-thiadiazol-2-yl] amide]	–	–	–	–	>70%	>80%
Cc1nc2cc(C(=O)Nc3nc(-c4ccco4)cs3)ccc2n1CCCN [Ligand L62, 1-(3-Amino-1-propyl)-2-methylbenzimidazole-5-carboxylic acid N-[4-(2-furyl)thiazol-2-yl] amide]	–	–	–	–	>70%	>80%
Cc1nc2cc(C(=O)Nc3ncc(-c4ccco4)s3)ccc2n1CCCN [Ligand L63, 1-(3-Amino-1-propyl)-2-methylbenzimidazole-5-carboxylic acid N-[5-(2-furyl)thiazol-2-yl] amide]	–	–	–	–	>70%	>80%
Cc1nc2cc(C(=O)Nc3ccc(-c4ccco4)nn3)ccc2n1CCCN [Ligand L64, 1-(3-Amino-1-propyl)-2-methylbenzimidazole-5-carboxylic acid N-[6-(2-furyl)pyridazin-3-yl] amide]	–	–	–	–	>50%	>80%
CCc1nc2cc(C(=O)Nc3nc(-c4ccco4)ns3)ccc2n1CCCN [Ligand L65, 1-(3-Amino-1-propyl)-2-ethylbenzimidazole-5-carboxylic acid N-[3-(2-furyl)-1,2,4-thiadiazol-5-yl] amide]	–	–	–	–	>70%	>80%
CCc1nc2cc(C(=O)Nc3nnc(-c4ccoc4)s3)ccc2n1CCCN [Ligand L66, 1-(3-Amino-1-propyl)-2-ethylbenzimidazole-5-carboxylic acid N-[5-(3-furyl)-1,3,4-thiadiazol-2-yl] amide]	–	–	–	–	>70%	>80%
CCc1nc2cc(C(=O)Nc3nc(-c4ccco4)cs3)ccc2n1CCCN [Ligand L67, 1-(3-Amino-1-propyl)-2-ethylbenzimidazole-5-carboxylic acid N-[4-(2-furyl)thiazol-2-yl] amide]	–	–	–	–	>70%	>80%
CCc1nc2cc(C(=O)Nc3ncc(-c4ccco4)s3)ccc2n1CCCN [Ligand L68, 1-(3-Amino-1-propyl)-2-ethylbenzimidazole-5-carboxylic acid N-[5-(2-furyl)thiazol-2-yl] amide]	–	–	–	–	>70%	>80%
CCc1nc2cc(C(=O)Nc3ccc(-c4ccco4)nn3)ccc2n1CCCN [Ligand L69, 1-(3-Amino-1-propyl)-2-ethylbenzimidazole-5-carboxylic acid N-[6-(2-furyl)pyridazin-3-yl]amide]	–	–	–	–	>50%	>80%
NCCCNc1nc(-c2ccc(C(=O)Nc3nnc(-c4ccco4)s3)cc2)cs1 [Ligand L70, 4-[2-(3-Amino-1-propylamino)thiazol-4-yl]benzoic acid N-[5-(2-furyl)-1,3,4-thiadiazol-2-yl]amide]	–	–	–	–	>40%	>80%
Cc1nc2cc(C(=O)Nc3nnc(-c4ccno4)s3)ccc2n1CCCN [Ligand L71, 1-(3-Amino-1-propyl)-2-methylbenzimidazole-5-carboxylic acid N-[5-(5-isoxazolyl)-1,3,4-thiadiazol-2-yl] amide]	–	–	–	–	>50%	>80%
Cc1nc2cc(C(=O)Nc3nnc(-c4cnco4)s3)ccc2n1CCCN [Ligand L72, 1-(3-Amino-1-propyl)-2-methylbenzimidazole-5-carboxylic acid N-[5-(5-oxazolyl)-1,3,4-thiadiazol-2-yl] amide]	–	–	–	–	>50%	>80%
Cc1nc2cc(C(=O)Nc3nnc(-c4ncco4)s3)ccc2n1CCCN [Ligand L73, 1-(3-Amino-1-propyl)-2-methylbenzimidazole-5-carboxylic acid N-[5-(2-oxazolyl)-1,3,4-thiadiazol-2-yl] amide]	–	–	–	–	>50%	>80%
